# Measured values from the supplement of paper PMC12889115.
# Some of the results follow. Values are raw readings; no control value is given beside them.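 In the initial screen, polymyxin B was used at a concentration that permeabilizes Salmonella's outer membrane but not its inner membrane. Maximum growth was set by DMSO wells with or without polymyxin B. Since plates varied, data were ranked per plate, and compounds giving the lowest OD600 advanced as hits.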
# System: Salmonella enterica serovar Typhimurium SL1344
# Assay: bacterial growth OD600 after 18 h with compound and polymyxin B; higher = more bacterial growth (less inhibition)
# Conditions: 50 µM, Mueller-Hinton broth
Compound,bacterial growth OD600 (polymyxin B 1 µg/mL),bacterial growth OD600 (polymyxin B 0.75 µg/mL)
O=C(NC1CCC1)c1cc(CN2CCOCC2)on1,0.917,–
Cc1ccccc1-n1ncc(C(C)NC(=O)c2cccs2)c1C (configuration not stated),0.911,–
CC(C)CC(=O)Nc1ccnn1C1CCN(Cc2cc[nH]n2)CC1,0.941,–
O=C1O[C@@H]2CN(C3Cc4ccccc4C3)C[C@@H]2N1CCc1ccccn1,1.17,–
Cc1nc(CC(=O)N(Cc2ccc(OCc3ccccn3)cc2)[C@H]2CCCCNC2=O)cs1,–,0.835
Cc1c(CNCc2cccnc2Oc2ccc(F)c(F)c2)cnn1C,–,0.777
Cc1nc(CN2CCC(N3CCC(C(=O)NCCc4ccccc4)CC3)CC2)c[nH]1,1.16,–
COC(=O)c1c(S(=O)(=O)N2CCCC2)sc2c1CCN(C(=O)C(=O)c1ccccc1)C2,–,0.744
COc1cccc(CN2CCCC2C(=O)Nc2ccc(-c3cscn3)cc2)c1 (configuration not stated),–,0.568
CCOC(=O)CCNC(=O)C1CC(=O)c2sc(NC(=O)c3c(F)cccc3Cl)nc2C1 (configuration not stated),–,0.819
COc1ccc(OC2CCN(C3CCCC3)CC2)c(C(=O)N2CCN(CC3CC3)CC2)c1,0.877,–
CCOC(=O)C1(Cc2ccc(F)cc2)CCCN(C(=O)C(C)(C)C)C1 (configuration not stated),0.666,–
FC(F)Oc1ccc(CNCc2cccnc2N2CCOCC2)cc1,0.958,–
COc1cc(-c2nc(CN3CCSCC3)c(C)o2)ccc1F,0.754,–
COc1ccc(C(=O)N2CCCC(Nc3ccc(F)c(F)c3)C2)c(OC)n1 (configuration not stated),0.86,–
Cc1nnc(-c2cccc(NC(=O)C3CCCCN3C(=O)C3CCC3)c2)s1 (configuration not stated),0.996,–
Cc1nc2ccccn2c1CN(C)C(=O)c1ccc2nc(Cc3ccccc3F)oc2c1,–,0.671
COc1ccccc1N1CCN(C2CCCN(Cc3ccccc3-c3ccco3)C2)CC1 (configuration not stated),0.937,–
CN(Cc1nc(COc2ccccc2)no1)CC1Cc2ccccc2O1 (configuration not stated),1,–
CC(NC(=O)c1coc(COc2cccc(C(F)(F)F)c2)n1)c1ccncn1 (configuration not stated),0.98,–
O=C1CCC(CCC(=O)N2CCCC(C(=O)c3ccccc3)C2)(Cc2ccc3ccccc3c2)N1 (configuration not stated),–,0.834
CCOc1ccc2nc(N3CCCC3C(=O)NCCc3nc(-c4cccnc4)no3)nc(C)c2c1 (configuration not stated),–,0.843

# Arranged by formula weight (smallest number first): part of the list above.
Compound,bacterial growth OD600 (polymyxin B 1 µg/mL),bacterial growth OD600 (polymyxin B 0.75 µg/mL)
CCOC(=O)C1(Cc2ccc(F)cc2)CCCN(C(=O)C(C)(C)C)C1 (configuration not stated),0.666,–
Cc1nc(CN2CCC(N3CCC(C(=O)NCCc4ccccc4)CC3)CC2)c[nH]1,1.16,–
Cc1nc(CC(=O)N(Cc2ccc(OCc3ccccn3)cc2)[C@H]2CCCCNC2=O)cs1,–,0.835
